Here are results for 2 substances from publication PMC3355077.

Protein sequences, listed by entry. Tags and fused reporters are not part of them. Lines headed by an entry give the natural chain unless they say otherwise; changes in a name come on top. Chains listed by the source or under a name are the forms on record and can include a tag or linker. Residues count along the entry.
GST-tagged Psip1 PWWP domain (Q99JF8, residues 1-97): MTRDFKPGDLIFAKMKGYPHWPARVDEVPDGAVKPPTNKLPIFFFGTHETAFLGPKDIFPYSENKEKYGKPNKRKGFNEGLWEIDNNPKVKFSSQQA
Psip1/p52 (endogenous) (mouse (endogenous in NIH 3T3 and MEFs)) (Q99JF8, form named): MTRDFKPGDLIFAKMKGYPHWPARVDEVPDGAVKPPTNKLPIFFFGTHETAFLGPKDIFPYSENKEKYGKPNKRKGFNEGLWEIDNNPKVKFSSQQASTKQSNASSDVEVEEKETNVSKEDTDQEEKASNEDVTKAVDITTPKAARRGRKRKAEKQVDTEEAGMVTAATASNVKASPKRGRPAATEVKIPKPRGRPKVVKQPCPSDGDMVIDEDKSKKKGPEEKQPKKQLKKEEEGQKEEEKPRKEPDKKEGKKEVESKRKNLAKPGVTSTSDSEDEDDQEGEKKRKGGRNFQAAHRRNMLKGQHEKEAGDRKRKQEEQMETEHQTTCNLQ
UniProt Q07955: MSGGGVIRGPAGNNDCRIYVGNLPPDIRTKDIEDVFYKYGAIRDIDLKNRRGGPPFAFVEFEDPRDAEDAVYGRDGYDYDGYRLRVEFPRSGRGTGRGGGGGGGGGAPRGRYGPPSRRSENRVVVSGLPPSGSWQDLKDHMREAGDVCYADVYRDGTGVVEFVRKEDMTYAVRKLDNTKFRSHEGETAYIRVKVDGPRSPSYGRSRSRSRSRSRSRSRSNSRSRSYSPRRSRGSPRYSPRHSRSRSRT
UniProt Q6PDM2: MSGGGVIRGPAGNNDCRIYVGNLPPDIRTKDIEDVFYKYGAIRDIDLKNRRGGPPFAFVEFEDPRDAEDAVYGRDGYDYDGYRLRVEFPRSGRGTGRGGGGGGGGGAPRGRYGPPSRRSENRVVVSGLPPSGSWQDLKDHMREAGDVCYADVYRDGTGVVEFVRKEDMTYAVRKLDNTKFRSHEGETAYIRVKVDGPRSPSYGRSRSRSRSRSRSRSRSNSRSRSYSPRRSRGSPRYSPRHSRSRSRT

These are yes or no findings as the source states them, for the method shown. Binding seen in cells or lysates may run through a third protein. Some binding calls cover weakened binding; strength is not graded here.

Assay [1] addresses GST-tagged Psip1 PWWP domain (mouse) (UniProt Q99JF8). Nature of the assay: pull-down; GST-p52 or GST-PWWP on glutathione beads incubated with lysates of 293T cells overexpressing tagged SR proteins, GST lysis buffer, 5 washes; immunoblot with αT7 or αGFP; only the target purified.
The target of another assay is GST-p52 (mouse) (UniProt Q99JF8). The description is as above.
The target of assay [2] is Psip1/p52 (endogenous) (mouse (endogenous in NIH 3T3 and MEFs)) (UniProt Q99JF8). Nature of the assay: co-IP; A300-847 IP from NIH 3T3 nuclear extract, Protein A Dynal beads, 45 min 4°C, washes with 200 mM KCl; immunoblot; for SRSF1 also with RNase A.

As for T7-SRSF1 (from UniProt Q07955 1-248), the results for the binding result (in assay [1]; with GST-p52 (mouse)) were “no binding” and “binds”, respectively.

As to “Srsf1 (endogenous) (from UniProt Q6PDM2 1-248)”, the binding entry in assay [2] is listed as “binds”.
